# Cleaved PARP in drug-treated melanoma cells

From a melanoma drug combination screen (doi:10.1371/journal.pone.0140310); values rounded.

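The test systems are human melanoma cell lines, treated with a pair of drugs for 72 h and then stained and imaged. Each value is the cleaved-PARP-positive fraction of nuclei relative to DMSO-treated wells, in %, so that 100 equals the control and higher values mean more apoptosis. Concentrations were fixed for each drug; these are the higher of two levels. No replicate spread is given; individual values may be noisy. The marker varies much from line to line, for technical or biological reasons.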 This is part of the screen, not chosen by result. An entry leaves out what has no value listed here. A dash means that no value is listed here.

First drug in all entries: ABT-263, 2 µM, CC1(C)CCC(c2ccc(Cl)cc2)=C(CN2CCN(c3ccc(C(=O)NS(=O)(=O)c4ccc(N[C@H](CCN5CCOCC5)CSc5ccccc5)c(S(=O)(=O)C(F)(F)F)c4)cc3)CC2)C1

Compounds and concentrations:
vincristine, 0.0005 µM: CC[C@]1(O)C[C@H]2CN(CCc3c([nH]c4ccccc34)[C@@](C(=O)OC)(c3cc4c(cc3OC)N(C=O)[C@H]3[C@@](O)(C(=O)OC)[C@H](OC(C)=O)[C@]5(CC)C=CCN6CC[C@]43[C@@H]65)C2)C1
SNS-314, 0.004 µM: O=C(Nc1cccc(Cl)c1)Nc1ncc(CCNc2ncnc3ccsc23)s1
OSU-03012, 5 µM: NCC(=O)Nc1ccc(-n2nc(C(F)(F)F)cc2-c2ccc3c(ccc4ccccc43)c2)cc1
nilutamide, 5 µM: CC1(C)NC(=O)N(c2ccc([N+](=O)[O-])c(C(F)(F)F)c2)C1=O
vorinostat, 0.4 µM: O=C(CCCCCCC(=O)Nc1ccccc1)NO
GW2580, 5 µM: COc1ccc(COc2ccc(Cc3cnc(N)nc3N)cc2OC)cc1
FK866, 0.05 µM: O=C(/C=C/c1cccnc1)NCCCCC1CCN(C(=O)c2ccccc2)CC1

| Cell line | GW2580 | OSU-03012 | SNS-314 | vincristine | FK866 | vorinostat | nilutamide |
|---|---|---|---|---|---|---|---|
| COLO 829 | 159 | 242 | 175 | 91.2 | 1090 | 132 | 97.3 |
| UACC-257 | 231 | 816 | 3020 | 1220 | 3100 | 4350 | 1360 |
| WM3619 | 104 | 589 | 183 | 355 | 157 | 171 | 89.6 |
| A2058 | 114 | 111 | 123 | 135 | 88.5 | 78.8 | 156 |
| SK-MEL-28 | 120 | 1470 | 290 | 362 | 685 | 194 | 327 |
| UACC-62 | 196 | 190 | 135 | 233 | 215 | 161 | 148 |
| WM3526 | 356 | 4660 | 619 | 1120 | 192 | 623 | 244 |
| SK-MEL-5 | 387 | 3390 | 328 | 53.1 | 333 | 339 | 134 |
| COLO 800 | 142 | 211 | 232 | 242 | 242 | 82.5 | 66.3 |
| A101D | 75.5 | 587 | 163 | 90.1 | 334 | 201 | 323 |
| WM451Lu | 267 | 447 | 240 | 449 | 58.7 | 75.3 | 357 |
| 501mel | 200 | - | - | - | - | - | - |
| WM1745 | - | 3160 | 1270 | 1500 | 3210 | 1790 | 2260 |
| COLO 792 | 1300 | 1540 | 1950 | 651 | 5000 | 1250 | 854 |
| LB2518-MEL | 115 | 256 | - | 68.6 | 1260 | 121 | 283 |
| A375 | 480 | - | - | 91.2 | 177 | - | - |
| G-361 | 135 | 308 | 371 | 130 | 10400 | 153 | 157 |
| IST-MEL1 | 111 | 84.2 | 141 | 143 | 3160 | 131 | 112 |
| SK-MEL-2 | 133 | 1350 | - | 239 | 11600 | 436 | 144 |
| WM115 | 107 | 226 | 538 | 233 | 1090 | 128 | 140 |
| RVH-421 | 82.8 | 104 | 250 | 138 | 1210 | 66.7 | 78.7 |
| RPMI-7951 | 287 | 329 | 424 | 118 | 245 | 635 | 366 |
| WM1716 | 2200 | 2080 | 4740 | 3870 | 782 | 1610 | 3100 |
| SK-MEL-30 | 346 | 1260 | 687 | 824 | 430 | 631 | 555 |
| MeWo | 214 | 228 | 791 | 80.0 | 187 | 183 | 210 |
| MEL-HO | 53.8 | 140 | 171 | 142 | 6650 | 115 | 114 |
| C32 | 92.1 | 196 | 314 | 516 | 118 | 230 | 43.4 |
| MZ2-MEL | 239 | 422 | - | 273 | 9280 | 356 | 210 |
| IPC-298 | 59.1 | 259 | 205 | 139 | 10800 | 100 | 79.5 |
| LOX IMVI | 57.8 | 431 | 423 | 118 | 200 | 293 | 201 |

The first 2 entries again:

{"cell line": "COLO 829", "GW2580": 159, "OSU-03012": 242, "SNS-314": 175, "vincristine": 91.2, "FK866": 1090, "vorinostat": 132, "nilutamide": 97.3}
{"cell line": "UACC-257", "GW2580": 231, "OSU-03012": 816, "SNS-314": 3020, "vincristine": 1220, "FK866": 3100, "vorinostat": 4350, "nilutamide": 1360}